Measured values as given in patent US20130129746A1.
Results are given in words; binding and its absence hold for the method and conditions named. Some binding calls cover weakened binding; strength is not graded here.

By UniProt entry, the sequences of proteins in these tests, tags left out. Residues count along the entry.
UniProt A2V9Z4, residues 25-608: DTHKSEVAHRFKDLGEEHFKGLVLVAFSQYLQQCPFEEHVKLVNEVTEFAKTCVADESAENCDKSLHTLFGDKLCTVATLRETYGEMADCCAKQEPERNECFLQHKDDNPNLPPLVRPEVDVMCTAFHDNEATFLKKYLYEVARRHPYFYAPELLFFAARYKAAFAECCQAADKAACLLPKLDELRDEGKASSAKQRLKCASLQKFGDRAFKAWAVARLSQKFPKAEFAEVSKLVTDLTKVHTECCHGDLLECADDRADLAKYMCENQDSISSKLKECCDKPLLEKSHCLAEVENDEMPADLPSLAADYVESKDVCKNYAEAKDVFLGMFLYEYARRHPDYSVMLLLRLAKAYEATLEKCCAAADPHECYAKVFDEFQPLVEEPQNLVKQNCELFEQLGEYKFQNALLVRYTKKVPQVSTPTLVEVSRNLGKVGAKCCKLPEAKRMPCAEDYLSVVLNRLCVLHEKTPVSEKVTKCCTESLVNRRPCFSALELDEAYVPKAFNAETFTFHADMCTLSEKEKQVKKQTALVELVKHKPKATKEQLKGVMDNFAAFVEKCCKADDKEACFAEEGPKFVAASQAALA

Molecular target: Cynomolgus monkey Serum Albumin (Cynomolgus monkey) (UniProt A2V9Z4)
Assay: BIAcore SPR

B1: DOM7h-11-3 (protein)
VL: DIQMTQSPSSLSASVGDRVTITCRASRPIGTTLSWYQQKPGKAPKLLILWNSRLQSGVPSRFSGSGSGTDFTLTISSLQPEDFATYYCAQAGTHPTTFGQGTKVEIKR
binding: binds
